# Out of some 330,000 compounds screened, about 7,700 (2.3%) were called active. Inconclusive means that the source gave no clear call. Such entries were picked first, then a sample of the others. Calls come from the whole dose curve; as a rule, active = well fitted inhibition curve with a large enough effect; inconclusive = small, poorly fitted or top-dose-only effect, or effect the other way; inactive = flat fitted curve, though single readings scatter. Potencies beside an inconclusive call are fits to weak or partial responses and may not hold up.
# Assay: qHTS screen for small molecules that inhibit ELG1-dependent DNA repair in human embryonic kidney (HEK293T) cells expressing luciferase-tagged ELG1; note: nearly all actives have a fitted effect of over 55% in size
# Details: HEK293T ELG1-luciferase reporter, luminescence, 16 h, DNA damage induced by 5-fluorouridine; series mostly up to 46.1 µM
# How it was run: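 Step one: seed 2,000 cells per well. Step two: pin-transfer compound or DMSO alongside 5-fluorouridine. Step three: incubate 16 hr, 37 °C, 5% CO2. Step four: add ONE-Glo, wait 30 min, read luminescence.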
# Potency is the fitted concentration of half-maximal effect.
row,Compound,Potency
1,COCCn1c(SCC(=O)Nc2ccc3c(c2)OCCO3)nc2c(c1=O)SC(C)C2 (configuration not stated),"inconclusive: 20.6 µM [activator, single point]"
2,COc1cccc(-n2cc3c(=O)n(C)c(=O)n(C)c3c2)c1,"inconclusive: 29.1 µM [activator, single point]"
3,COC(=O)c1ccc(COC(=O)c2ccc(-n3cnnn3)cc2)o1,"inconclusive: 35.5 µM [inhibitor, single point]"
4,CSC(=NCCCN1CCOCC1)NS(=O)(=O)c1cccs1,"inconclusive: 14.6 µM [activator, partial curve, poor fit]"
5,CC(O)C(NS(=O)(=O)c1ccc(Cl)cc1)C(=O)OCc1cc([N+](=O)[O-])cc2c1OCOC2 (configuration not stated),"inconclusive: 16.4 µM [inhibitor, single point]"
6,COC(=O)c1nccnc1C(=O)Nc1ccccc1N1CCOCC1,"inconclusive: 32.6 µM [activator, partial curve, poor fit]"
7,CC(=O)c1ccc(OCCCC(=O)N2CCN(S(=O)(=O)c3cc(C)ccc3C)CC2)cc1,"inconclusive: 4.61 µM [inhibitor, single point]"
8,Cc1nn(-c2ccccc2)c(C)c1/C=N/NC(=O)c1cc(-c2ccccc2)n[nH]1,"inconclusive: 29.1 µM [inhibitor, single point]"
9,Cc1[nH]c2ccccc2c1-c1nc2ccccc2[nH]c1=O,"inconclusive: 20.6 µM [activator, partial curve]"
10,COc1ccccc1NC(=O)Cc1nnc(SCC(=O)NC2CCCC2)n1C,inactive
11,O=C(COc1ccc2ccccc2c1Br)NC(=S)Nc1cccc(CO)c1,"inconclusive: 11.6 µM [activator, partial curve]"
12,O=C1/C(=C/c2ccccc2[N+](=O)[O-])COc2ccccc21,"inconclusive: 18.3 µM [inhibitor, single point]"
13,O=C(Nc1ccccc1C(F)(F)F)N1CCN(C(c2ccccc2)c2ccccc2)CC1,"inconclusive: 2.31 µM [inhibitor, partial curve, poor fit]"
14,O=C(Cc1cccc2ccccc12)NN1C(=O)/C(=C\c2cccnc2)SC1=S,inactive
15,O=C(Nc1ccc(F)c(Cl)c1)c1cccnc1,"inconclusive: 0.326 µM [activator, partial curve, poor fit]"
16,C=CCNc1nc2ccccc2nc1NS(=O)(=O)c1ccc(F)cc1,"inconclusive: 0.0041 µM [inhibitor, full curve, poor fit]"
17,CCOc1ncccc1C(=O)OCC(=O)Nc1c(C)cc(C)cc1C,inactive
18,COc1ccc2nc(C)cc(N/N=C/c3cccc(OC)c3O)c2c1,inactive
19,COc1ccc2cc(C3CC(c4ccco4)=NN3S(C)(=O)=O)c(Cl)nc2c1 (configuration not stated),"inconclusive: 16.4 µM [inhibitor, partial curve, poor fit]"
20,COc1ccccc1N1CCN(C(=O)CCC(=O)N2CCN(c3ccc(F)cc3)CC2)CC1,"inconclusive: 16.4 µM [inhibitor, partial curve, poor fit]"
21,O=C(CCc1nc2ccccc2s1)NCc1ccccc1F,"inconclusive: 0.73 µM [activator, partial curve, poor fit]"

row,Compound,Potency
1,Cc1ccc(NC(=O)c2cc(-c3ccccc3O)n[nH]2)cc1Cl,inactive
2,CC(=O)N1CCOc2ccc(S(=O)(=O)NCC3CCC(C(=O)NCCC(C)C)CC3)cc21 (configuration not stated),"inconclusive: 16.4 µM [inhibitor, partial curve, poor fit]"
3,O=C(NCc1ccccn1)c1cc2ccccc2oc1=O,"inconclusive: 16.4 µM [activator, partial curve]"
4,COc1ccc2nc(NC(=O)CNS(=O)(=O)c3cccs3)sc2c1,"inconclusive: 25.9 µM [inhibitor, partial curve, poor fit]"
5,COc1cc(C(=O)N/N=C(\C)c2ccccn2)cc(OC)c1OC,inactive
6,CCCCNc1nc(Nc2ccc(C)c(Cl)c2)c2cnn(C)c2n1,active: 18.3 µM
7,Cc1nc(NCc2ccccn2)c2c3c(sc2n1)CCCC3,inactive
8,CCn1nc(NC(=O)C(C)C)c2cc3ccc(C)cc3nc21,"inconclusive: 29.1 µM [inhibitor, partial curve, poor fit]"
9,O=C(CSc1nc(=O)n(CCCN2CCOCC2)c2c1CCC2)Nc1ccc([N+](=O)[O-])cc1,"inconclusive: 16.4 µM [inhibitor, partial curve, poor fit]"
10,N#Cc1c(NC(=O)CCCN2C(=O)c3ccccc3C2=O)oc(-c2ccccc2)c1-c1ccccc1,active: 7.94 µM
11,C/C(=N\NC(=O)C1CC1)c1ccc(OC(F)F)cc1,"inconclusive: 18.3 µM [activator, single point]"
12,CC(C)n1c(O)c(N=NC(=O)C2COc3ccccc3O2)c2ccccc21 (configuration not stated),"inconclusive: 20.6 µM [inhibitor, single point]"
13,O=C1c2ccccc2NC(c2ccc(-c3cccs3)o2)N1O (configuration not stated),"inconclusive: 7.3 µM [activator, partial curve]"
14,C=CCOc1nc2c(c(=O)n(C)c(=O)n2C)n1Cc1ccc(Cl)cc1,"inconclusive: 20.6 µM [inhibitor, partial curve]"
15,COc1ccc2c(C)nc(Nc3nc(-c4ccccc4)cc(=O)[nH]3)nc2c1,active: 4.11 µM
16,C/C(=N\NC(=O)c1c(C)nc2ccccn12)c1cccc([N+](=O)[O-])c1,"inconclusive: 20.6 µM [inhibitor, single point]"
17,CC1CCC(NC(=O)CN(C)CC(=O)Nc2ccc(F)cc2)CC1 (configuration not stated),inactive
18,CCc1cc2c(=O)c(-c3cscn3)coc2cc1OC,"inconclusive: 3.26 µM [activator, partial curve]"
19,COc1ccc(C(=O)NCc2nnc(SCC(=O)NC3CCCC3)o2)cc1,"inconclusive: 11.6 µM [activator, partial curve, poor fit]"
20,Cc1cc(C)c(C)c(OCC(=O)N2CCOCC2)c1,"inconclusive: 25.9 µM [activator, partial curve]"
21,CCN1C[C@@H]2[C@@H]3C(=O)N(C)C(=O)[C@@H]3[C@](Cc3ccccc3)(C(=O)OC)N2C1=NC1CCCCC1,inactive

# Three entries from above, set out differently:
row | Compound | Potency
5 | COc1cc(C(=O)N/N=C(\C)c2ccccn2)cc(OC)c1OC | inactive
17 | CC1CCC(NC(=O)CN(C)CC(=O)Nc2ccc(F)cc2)CC1 (configuration not stated) | inactive
19 | COc1ccc(C(=O)NCc2nnc(SCC(=O)NC3CCCC3)o2)cc1 | inconclusive: 11.6 µM [activator, partial curve, poor fit]
